According to paper PMC11990898, “Novel Isatin–Chalcone Hybrid Molecules: Design, Synthesis and Anti-Neuroinflammatory Activity Evaluation” (Molecules, 2025):

test system: NO release from LPS-stimulated BV2 cells; assay: NO release inhibition in LPS-stimulated BV2 cells (Griess method); type: cell-based, mouse; conditions: cell viability IC50/NO inhibition IC50
Method: BV2 cells stimulated by lipopolysaccharide (LPS) lead to an increase in NO release. Therefore, we used the inhibitory ability of the target compounds on NO as a preliminary method to evaluate their anti-neuroinflammatory properties. We evaluated the inhibitory ability of isatin–chalcone hybrid derivatives 4a–t on the release of NO from BV2 cells at 20 μM. The release amount of NO was detected by the Griess method, and the actual release amount of NO was calculated based on the experimental data.
BV2 cells were plated in 96-well microplates at 40,000 cells per well (100 μL/well) and incubated for 24 h. Then, 50 μL of LPS solution with a final concentration of 100 ng/mL and 50 μL of compounds (diluted with medium to a final concentration of 0.31–20 μM) were added, and each concentration had 3 parallel wells. The NO assay kit was used to carry out nitrite assays after 24 h. The 50 μL of culture medium was mixed with the GrisR1 (50 μL) and GrisR2 (50 μL) of the NO assay kit in another new 96-well plate. The absorbance was detected at 540 nm. The percentage of inhibition of NO was obtained from the following formula: [(Rlps − RB − RC)/(Rlps − RB)] × 100, where Rlps is the release amount of only the LPS-treated group, RB is the release amount of the normal control and RC is the release amount of the test compound and LPS-treated group. The IC50 values of test compounds were calculated by linear regression plots.

Going from `CCOC(=O)CN1C(=O)/C(=C/C(=O)/C=C/c2ccccc2)c2ccccc21` [Compound 4b, Ethyl 2-((E)-2-oxo-3-((E)-2-oxo-4-phenylbut-3-en-1-ylidene)indolin-1-yl)acetate] to `CCCCCc1ccc(C(=O)/C=C2/C(=O)N(CC(=O)OCC)c3ccccc32)cc1` [Compound 4g, Ethyl (E)-2-(2-oxo-3-(2-oxo-2-(4-pentylphenyl)ethylidene)indolin-1-yl)acetate], the “Therapeutic Index (TI)” value falls from 21.6 to 2.8.

Going from `CCOC(=O)CN1C(=O)/C(=C/C(=O)c2cc(OC)c(OC)c(OC)c2)c2ccccc21` [Compound 4j, Ethyl (E)-2-(2-oxo-3-(2-oxo-2-(3,4,5-trimethoxyphenyl)ethylidene)indolin-1-yl)acetate] to `COC(=O)CN1C(=O)/C(=C/C(=O)c2cc(OC)c(OC)c(OC)c2)c2ccccc21` [Compound 5a, Methyl (E)-2-(2-oxo-3-(2-oxo-2-(3,4,5-trimethoxyphenyl)ethylidene)indolin-1-yl)acetate], the “Therapeutic Index (TI)” value rises from 4.6 to 7.2.

Going from `CCCCCCCOC(=O)CN1C(=O)/C(=C/C(=O)c2cc(OC)c(OC)c(OC)c2)c2ccccc21` [Compound 5b, Heptyl (E)-2-(2-oxo-3-(2-oxo-2-(3,4,5-trimethoxyphenyl)ethylidene)indolin-1-yl)acetate] to `CCCCCCCCCCCOC(=O)CN1C(=O)/C(=C/C(=O)c2cc(OC)c(OC)c(OC)c2)c2ccccc21` [Compound 5c, Undecyl (E)-2-(2-oxo-3-(2-oxo-2-(3,4,5-trimethoxyphenyl)ethylidene)indolin-1-yl)acetate], the “Therapeutic Index (TI)” value rises from 2.9 to 3.1.

Compared with `COc1cc(C(=O)/C=C2/C(=O)N(CC(=O)OCCc3ccccc3)c3ccccc32)cc(OC)c1OC` [Compound 5f, Phenethyl (E)-2-(2-oxo-3-(2-oxo-2-(3,4,5-trimethoxyphenyl)ethylidene)indolin-1-yl)acetate], `COc1cc(C(=O)/C=C2/C(=O)N(CC(=O)OCCCc3ccccc3)c3ccccc32)cc(OC)c1OC` [Compound 5g, 3-Phenylpropyl (E)-2-(2-oxo-3-(2-oxo-2-(3,4,5-trimethoxyphenyl)ethylidene)indolin-1-yl)acetate] is higher in “Therapeutic Index (TI)” value: 4.0 for the first, 8.1 for the second.

Compared with `CCOC(=O)CN1C(=O)/C(=C/C(=O)c2cc(OC)c(OC)c(OC)c2)c2cc(C)ccc21` [Compound 9e, Ethyl (E)-2-(5-methyl-2-oxo-3-(2-oxo-2-(3,4,5-trimethoxyphenyl)ethylidene)indolin-1-yl)acetate], `CCOC(=O)CN1C(=O)/C(=C/C(=O)c2cc(OC)c(OC)c(OC)c2)c2cc(OC)ccc21` [Compound 9f, Ethyl (E)-2-(5-methoxy-2-oxo-3-(2-oxo-2-(3,4,5-trimethoxyphenyl)ethylidene)indolin-1-yl)acetate] is lower in “Therapeutic Index (TI)” value: 7.8 for the first, 7.5 for the second.
